Data as given in PubChem BioAssay AID1224831 (NIAID, 2016).

Assay: 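Genes that support or restrain LPS-induced TNF-alpha reporter activity in macrophage-like cells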 (follow-up of hits)
Cell system: human THP-1 B5 monocytic leukaemia cells carrying a TNF promoter luciferase reporter, made macrophage-like with PMA
Reagents: single siRNA against human genes, 50 nM
Timing: about 68 h of knock-down, then 4 h LPS
Treatment: LPS (Salmonella minnesota, TLR-grade) at 10 ng/ml for 4 h; PMA 5 ng/ml present during knock-down
Read-out: 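TNF promoter reporter read as dual luciferase ratio after 4 h LPS, normalised per plate to its median, given as replicate mean robust z-score per siRNA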
Direction: TNF reporter z-score: higher = stronger LPS-induced TNF reporter signal; z-score, median over gene's siRNAs: higher = stronger TNF reporter signal across the gene's siRNAs
Active means: 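Active when the replicate mean z-score is about -1 or lower, or about 1.5 or higher; lowered and raised TNF reporter signal both count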
Calls: active = changed TNF reporter (either direction); inactive = little change
Here is one part, drawn at random, of about 3,500 reagents. Over the whole deposit, 731 (21%) got an active call. 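Active means either lowered or raised reporter signal; the gene-median score did not drive the per-siRNA calls.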 Unmarked entries are inactive. The numbers tell different reagents against one gene apart.

The opening 3 entries, to show the layout:
gene	reagent	TNF reporter z-score, replicate mean	z-score, median over gene's siRNAs
XRCC4 (X-ray repair cross complementing 4)	1	3.97 (active)	0.55
XRCC4 (X-ray repair cross complementing 4)	2	0.64	0.55
XRCC4 (X-ray repair cross complementing 4)	3	1.12	0.55

The listing, repeating the preview:
gene	reagent	TNF reporter z-score, replicate mean	z-score, median over gene's siRNAs
XRCC4 (X-ray repair cross complementing 4)	1	3.97 (active)	0.55
XRCC4 (X-ray repair cross complementing 4)	2	0.64	0.55
XRCC4 (X-ray repair cross complementing 4)	3	1.12	0.55
XRCC4 (X-ray repair cross complementing 4)	4	0.46	0.55
XRCC4 (X-ray repair cross complementing 4)	5	-0.29	0.55
XRCC4 (X-ray repair cross complementing 4)	6	-1.59 (active)	0.55
PHOX2B (paired like homeobox 2B)	1	0.78	-0.16
PHOX2B (paired like homeobox 2B)	2	-1.35 (active)	-0.16
PHOX2B (paired like homeobox 2B)	3	0.85	-0.16
PHOX2B (paired like homeobox 2B)	4	-0.93	-0.16
PHOX2B (paired like homeobox 2B)	5	-0.08	-0.16
PHOX2B (paired like homeobox 2B)	6	-0.24	-0.16
ZNF655 (zinc finger protein 655)	1	0.23	1.01
ZNF655 (zinc finger protein 655)	2	0.85	1.01
ZNF655 (zinc finger protein 655)	3	-0.1	1.01
ZNF655 (zinc finger protein 655)	4	1.84 (active)	1.01
ZNF655 (zinc finger protein 655)	5	1.76 (active)	1.01
ZNF655 (zinc finger protein 655)	6	1.17	1.01
RAPGEF1 (Rap guanine nucleotide exchange factor 1)	1	0.89	0.805
RAPGEF1 (Rap guanine nucleotide exchange factor 1)	2	0.78	0.805
RAPGEF1 (Rap guanine nucleotide exchange factor 1)	3	0	0.805
RAPGEF1 (Rap guanine nucleotide exchange factor 1)	4	0.37	0.805
RAPGEF1 (Rap guanine nucleotide exchange factor 1)	5	1.27	0.805
RAPGEF1 (Rap guanine nucleotide exchange factor 1)	6	0.83	0.805
OR8J3 (olfactory receptor family 8 subfamily J member 3)	1	1.18	-0.07
OR8J3 (olfactory receptor family 8 subfamily J member 3)	2	-0.22	-0.07
OR8J3 (olfactory receptor family 8 subfamily J member 3)	3	1.12	-0.07
OR8J3 (olfactory receptor family 8 subfamily J member 3)	4	-1.74 (active)	-0.07
OR8J3 (olfactory receptor family 8 subfamily J member 3)	5	-0.5	-0.07
OR8J3 (olfactory receptor family 8 subfamily J member 3)	6	0.08	-0.07
NR4A1 (nuclear receptor subfamily 4 group A member 1)	1	0.31	-0.085
NR4A1 (nuclear receptor subfamily 4 group A member 1)	2	0.84	-0.085
NR4A1 (nuclear receptor subfamily 4 group A member 1)	3	-0.48	-0.085
NR4A1 (nuclear receptor subfamily 4 group A member 1)	4	1.15	-0.085
NR4A1 (nuclear receptor subfamily 4 group A member 1)	5	-0.74	-0.085
NR4A1 (nuclear receptor subfamily 4 group A member 1)	6	-0.88	-0.085
